Where two headings read alike, the source gives them in different places. No constants are given. Whether binding was seen depends on the method and setting. Binding seen in cells or lysates may run through a third protein. Some entries that bind do so weakly or less than the wild type.
Columns and labels:
Test in all cases: co-IP
[1] = target: IQGAP1 (mouse (endogenous in mouse T cells)) (UniProt Q9JKF1)
[2] = target: full-length Yes-associated protein (FL FLAG-YAP) (human) (UniProt P46937)
[3] = target: IQGAP1 (mouse (endogenous in mouse T cells)) (UniProt Q9JKF1); remark: listed apart in the source

Amino acid sequences for entries named in this document (tags omitted).
UniProt Q9JKF1: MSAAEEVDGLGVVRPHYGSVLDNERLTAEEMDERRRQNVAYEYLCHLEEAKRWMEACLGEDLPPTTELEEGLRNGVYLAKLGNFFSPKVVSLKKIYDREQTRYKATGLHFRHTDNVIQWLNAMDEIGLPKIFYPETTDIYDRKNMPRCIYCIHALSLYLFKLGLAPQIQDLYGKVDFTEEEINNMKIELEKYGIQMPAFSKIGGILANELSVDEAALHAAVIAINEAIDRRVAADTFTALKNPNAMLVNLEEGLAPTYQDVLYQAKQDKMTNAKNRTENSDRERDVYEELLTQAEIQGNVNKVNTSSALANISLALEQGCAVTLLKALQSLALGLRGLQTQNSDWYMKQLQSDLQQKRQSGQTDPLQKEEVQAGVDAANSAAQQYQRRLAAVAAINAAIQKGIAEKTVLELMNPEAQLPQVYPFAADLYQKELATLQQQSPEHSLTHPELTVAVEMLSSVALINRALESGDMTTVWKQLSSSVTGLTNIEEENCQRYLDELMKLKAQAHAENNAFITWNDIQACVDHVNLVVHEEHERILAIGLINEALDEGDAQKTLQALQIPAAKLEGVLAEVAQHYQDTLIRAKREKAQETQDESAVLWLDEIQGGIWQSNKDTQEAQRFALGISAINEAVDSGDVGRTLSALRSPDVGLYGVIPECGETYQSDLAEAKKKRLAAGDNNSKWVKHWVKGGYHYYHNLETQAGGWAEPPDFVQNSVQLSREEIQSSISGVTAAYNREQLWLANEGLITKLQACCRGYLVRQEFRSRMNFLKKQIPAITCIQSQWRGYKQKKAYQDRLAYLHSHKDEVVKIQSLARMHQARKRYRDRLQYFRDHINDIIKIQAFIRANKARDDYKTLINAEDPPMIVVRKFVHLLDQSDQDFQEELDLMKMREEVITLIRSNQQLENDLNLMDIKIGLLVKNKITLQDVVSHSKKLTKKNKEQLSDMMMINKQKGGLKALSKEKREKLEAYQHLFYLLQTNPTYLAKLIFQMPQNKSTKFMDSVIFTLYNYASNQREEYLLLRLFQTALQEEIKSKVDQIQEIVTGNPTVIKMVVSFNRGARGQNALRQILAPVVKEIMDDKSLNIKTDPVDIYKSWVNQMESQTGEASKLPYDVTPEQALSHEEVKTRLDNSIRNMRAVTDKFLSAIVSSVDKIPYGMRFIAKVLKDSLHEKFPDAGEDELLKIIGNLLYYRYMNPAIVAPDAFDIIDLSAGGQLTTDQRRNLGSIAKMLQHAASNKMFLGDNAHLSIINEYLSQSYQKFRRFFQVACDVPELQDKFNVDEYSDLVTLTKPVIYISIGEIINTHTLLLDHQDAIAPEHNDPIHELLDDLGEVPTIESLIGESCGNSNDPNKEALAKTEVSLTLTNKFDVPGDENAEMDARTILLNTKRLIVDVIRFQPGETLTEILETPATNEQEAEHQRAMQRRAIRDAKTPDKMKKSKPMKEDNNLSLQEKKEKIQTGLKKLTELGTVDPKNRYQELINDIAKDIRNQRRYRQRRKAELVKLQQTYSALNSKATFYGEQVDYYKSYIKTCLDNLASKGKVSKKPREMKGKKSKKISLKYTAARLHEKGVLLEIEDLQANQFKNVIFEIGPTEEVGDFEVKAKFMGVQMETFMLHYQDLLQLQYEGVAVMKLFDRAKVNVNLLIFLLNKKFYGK

Measured: binding

B1: Nuclear Factor of Activated T cells 1 (NFAT1) (protein, UniProt Q60591 1-927)
chain: MDVPEPQPDPDGGDGPGHEPGGSPQDELDFSILFDYDYLNPIEEEPIAHKAISSPSGLAYPDDVLDYGLKPCNPLASLSGEPPGRFGEPDSIGFQNFLSPVKPAGASGPSPRIEITPSHELMQAGGALRGRDAGLSPEQPALALAGVAASPRFTLPVPGYEGYREPLCLSPASSGSSASFISDTFSPYTSPCVSPNNAGPDDLCPQFQNIPAHYSPRTSPIMSPRTSLAEDSCLGRHSPVPRPASRSSSPGAKRRHSCAEALVAPLPAASPQRSRSPSPQPSPHVALQDDSIPAGYPPTAGSAVLMDALNTLATDSPCGIPSKIWKTSPDPTPVSTAPSKAGLARHIYPTVEFLGPCEQEERRNSAPESILLVPPTWPKQLVPAIPICSIPVTASLPPLEWPLSNQSGSYELRIEVQPKPHHRAHYETEGSRGAVKAPTGGHPVVQLHGYMENKPLGLQIFIGTADERILKPHAFYQVHRITGKTVTTTSYEKIVGNTKVLEIPLEPKNNMRATIDCAGILKLRNADIELRKGETDIGRKNTRVRLVFRVHVPEPSGRIVSLQAASNPIECSQRSAHELPMVERQDMDSCLVYGGQQMILTGQNFTAESKVVFMEKTTDGQQIWEMEATVDKDKSQPNMLFVEIPEYRNKHIRVPVKVNFYVINGKRKRSQPQHFTYHPVPAIKTEPSDEYEPSLICSPAHGGLGSQPYYPQHPMLAESPSCLVATMAPCQQFRSGLSSPDARYQQQSPAAALYQRSKSLSPGLLGYQQPSLLAAPLGLADAHRSVLVHAGSQGQGQGSTLPHTSSASQQASPVIHYSPTNQQLRGGGHQEFQHIMYCENFGPSSARPGPPPINQGQRLSPGAYPTVIQQQTAPSQRAAKNGPSDQKEALPTGVTVKQEQNLDQTYLDDVNEIIRKEFSGPPSRNQT
modifications: phosphorylated (phospho-NFAT1 band; sites not given)
binds: [1] | [2] | [3]

Source: publication doi:10.1101/581322
